Results are given in words; binding and its absence hold for the method and conditions named. Some results given as binding are weak or reduced against the parent protein; the word gives no strength.

Sequences of proteins named here, by UniProt entry; tags and fusion partners are left off. A change or cut given only in a name is not applied to a line headed by its entry.
UniProt P10636: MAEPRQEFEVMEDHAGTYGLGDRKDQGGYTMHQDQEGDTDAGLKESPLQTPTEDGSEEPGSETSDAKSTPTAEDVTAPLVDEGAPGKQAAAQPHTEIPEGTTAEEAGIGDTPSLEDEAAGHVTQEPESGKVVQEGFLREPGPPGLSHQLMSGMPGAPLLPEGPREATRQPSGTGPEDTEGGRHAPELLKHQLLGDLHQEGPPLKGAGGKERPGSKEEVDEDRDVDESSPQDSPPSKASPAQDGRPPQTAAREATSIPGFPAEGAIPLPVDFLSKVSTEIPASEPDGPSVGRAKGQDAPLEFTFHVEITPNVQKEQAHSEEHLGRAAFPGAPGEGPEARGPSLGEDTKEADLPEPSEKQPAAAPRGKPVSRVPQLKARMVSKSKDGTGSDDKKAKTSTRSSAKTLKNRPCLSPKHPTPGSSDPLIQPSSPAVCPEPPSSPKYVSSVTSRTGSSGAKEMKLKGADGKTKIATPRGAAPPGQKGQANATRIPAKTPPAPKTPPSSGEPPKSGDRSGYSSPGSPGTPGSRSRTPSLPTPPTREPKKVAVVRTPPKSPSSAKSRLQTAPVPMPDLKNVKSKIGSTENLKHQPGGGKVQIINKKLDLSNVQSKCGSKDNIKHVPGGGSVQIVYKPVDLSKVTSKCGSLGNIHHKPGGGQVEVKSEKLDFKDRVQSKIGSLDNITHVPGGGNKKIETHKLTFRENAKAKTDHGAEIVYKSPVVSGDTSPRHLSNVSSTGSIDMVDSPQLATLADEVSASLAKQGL

Here are results for one molecule from US20250025558A1.

Test [1] deals with Tau, fluorescently labeled (UniProt P10636). Briefly: flow cytometry of ATTO-488-labeled Tau on mixed HMC3 cells expressing CARAβ, CARTau, both or neither. A general note: In flow cytometry, cells or beads pass a laser one at a time.
Test [2] shares this target. Nature of the test: flow cytometry of ATTO-488-labeled Tau on CAR-expressing HMC3 cells.

B1: anti-Tau CAR with scFv from Gosuranemab (orientation not stated) (protein)
VH: EVHLVESGGALVKPGGSLRLSCAASGFSFSKYGMSWVRQAPGKGLEWVATISSSGSRTYYPDSVKGRFTISRDNAKNTLYLQMNSLRAEDTAMYYCSISWDGAMDYWGQGTTVTVSS
VL: DVVMTQSPLSLPVTLGQPASISCKSSQSIVHSNGNTYLEWYLQKPGQSPQLLVYKVSNRFSGVPDRFSGSGSGTDFTLKISRVEAEDVGTYYCFQGSLVPWAFGGGTKVEIK
Regarding B1, the binding result in test [1] and in test [2] was “binds” throughout.
